Measured values from the supplement of paper PMC3682954.
Where a name gives a salt, the structure may show the parent alone. ± gives the standard deviation of the averaged measurements. The list shows a part of the results. Single values are uncertain, as repeats are few or missing.

Test system: RAW 264.7
Assay: HMGB1-induced TNF-alpha production relative to HMGB1-stimulated control; higher = more TNF-alpha secretion (less inhibition)
Details: stimulus: HMGB1 5 ug/ml, 18 h
[1] = compound concentration: 1 ug/ml

Structure (SMILES) | HMGB1-induced TNF-alpha production (compound concentration: 3 uM) | HMGB1-induced TNF-alpha production [1]
N=C(NCCCCCCNC(=N)NC(=N)Nc1ccc(Cl)cc1)NC(=N)Nc1ccc(Cl)cc1 [Chlorhexidine] | 60% | –
N=C(NCCCCCCNC(=N)NC(=N)Nc1ccc(Cl)cc1)NC(=N)Nc1ccc(Cl)cc1 | 107 ± 12% | –
NCc1ccccc1CC(=O)N[C@@H]1C(=O)N2C(C(=O)O)=C(CSc3nnnn3CC(=O)O)CS[C@H]12 [Ceforanide] | 74.6% | –
CN1CCN(C2=Nc3ccccc3Oc3ccc(Cl)cc32)CC1 [Loxapine succinate] | 85.7 ± 6.3% | –
CN1CCN(C2=Nc3ccccc3Oc3ccc(Cl)cc32)CC1 | 107.2 ± 0.92% | –
Oc1ccc2ccccc2c1 [beta-NAPHTHOL] | 98.6% | –
C[N+]1(C)CCC(OC(=O)C(c2ccccc2)c2ccccc2)CC1 [4-DAMP methiodide] | 99.9% | –
Oc1cc(O)c2c(c1)O[C@H](c1ccc(O)c(O)c1)[C@@H](O)C2 [(+)-Catechin Hydrate] | 83% | –
Oc1cc(O)c2c(c1)O[C@H](c1ccc(O)c(O)c1)[C@@H](O)C2 | 89.4% | –
Cc1[nH]ccc2c1[nH]c1cc(=O)ccc12 [Harmol hydrochloride monohydrate] | 107% | –
Cc1[nH]ccc2c1[nH]c1cc(=O)ccc12 [Harmol hydrochloride dihydrate] | – | 74.5%
CC(=O)Oc1ccccc1C(=O)Nc1ncc([N+](=O)[O-])s1 | 107% | –
CNCCc1c2cc(O)ccc2n2oc(=O)c(=O)oc12 [N-Methylserotonin oxalate] | – | 71.2%
CCN(CC)CCOC(=O)C1(C2CCCCC2)CCCCC1 [Dicyclomine hydrochloride] | 67 ± 12% | –
CCN(CC)CCOC(=O)C1(C2CCCCC2)CCCCC1 | 75.4% | –
O=C1CC(c2ccccc2O)Oc2ccc(O)cc21 (stereo not drawn) [2',6-Dihydroxyflavanone] | – | 64.4%
Cc1c(-c2ccccc2)oc2cc(O)ccc2c1=O | – | 64.8%
CC(N/C(=N\C#N)Nc1ccncc1)C(C)(C)C (stereo not drawn) [Pinacidil] | 90.2 ± 4.4% | –
CC(N/C(=N\C#N)Nc1ccncc1)C(C)(C)C (stereo not drawn) | 93% | –
CC(N/C(=N\C#N)Nc1ccncc1)C(C)(C)C (stereo not drawn) [Pinacidil monohydrate] | 106% | –
CC1(C)OC(=O)C(OCC2CC2)=C1c1ccc(S(C)(=O)=O)cc1 | 88.2% | –

Structure (SMILES) | HMGB1-induced TNF-alpha production (compound concentration: 3 uM) | HMGB1-induced TNF-alpha production [1]
COc1ccc([C@@H]2CC(=O)c3c(O)cc(O)cc3O2)cc1O [Hesperetin] | – | 74.7%
CN(C)CCCN1c2ccccc2Sc2ccc(C(F)(F)F)cc21 | 86.9% | –
CN(C)CCCN1c2ccccc2Sc2ccc(C(F)(F)F)cc21 [Triflupromazine hydrochloride] | 89.9 ± 30% | –
COc1ccc2c(c1)CCC1C2CCC2(C)C(NCCCCCCN3C(=O)C=CC3=O)CCC12 (stereo not drawn) | 87.6% | –
COc1cc(C(=O)OCCCN2CCCN(CCCOC(=O)c3cc(OC)c(OC)c(OC)c3)CC2)cc(OC)c1OC [Dilazep hydrochloride] | 69.8% | –
COc1cc(C(=O)OCCCN2CCCN(CCCOC(=O)c3cc(OC)c(OC)c(OC)c3)CC2)cc(OC)c1OC [Dilazep] | 84% | –
COc1cc(C(=O)OCCCN2CCCN(CCCOC(=O)c3cc(OC)c(OC)c(OC)c3)CC2)cc(OC)c1OC [Dilazep dihydrochloride] | 90.4% | –
N=C(NC(=O)c1nc(Cl)c(N)nc1N)Nc1ccccc1 [Phenamil] | 82.5% | –
N=C(NC(=O)c1nc(Cl)c(N)nc1N)Nc1ccccc1 [Phenamil methanesulfonate] | 101% | –
CC[N+](C)(CC)CCOC(=O)C(O)(c1ccccc1)C1CCCCC1 (stereo not drawn) | 89.9 ± 10% | –
C/C=C/C(=O)OCC1OC(Oc2cc(O)c3c(=O)cc(-c4ccc(O)c(OC)c4)oc3c2)C(O)C(O)C1O (stereo not drawn) [Thermopsoside, crotonoyl] | – | 93.7%
O=C1c2c(O)cccc2Cc2cccc(O)c21 [Anthralin] | 114% | –
O=C1c2c(O)cccc2Cc2cccc(O)c21 | 73.9% | –
C#CC(N)CCC(=O)O (stereo not drawn) [gamma-Acetylinic GABA] | 99.6% | –
O=S(=O)(O)c1cc(N=C=S)ccc1/C=C/c1ccc(N=C=S)cc1S(=O)(=O)O | 118% | –
C[Si](C)(C)c1cn([C@H]2C[C@H](O)[C@@H](CO)O2)c(=O)[nH]c1=O [Xylure] | – | 76.9%
NS(=O)(=O)c1cc2c(cc1Cl)NCNS2(=O)=O [Hydrochlorothiazide] | 81.7 ± 1.1% | –
NS(=O)(=O)c1cc2c(cc1Cl)NCNS2(=O)=O | 86% | –
C[N+]1(C)CCC(=C(c2ccccc2)c2ccccc2)CC1 [Diphemanil methylsulfate] | 71.8% | –
COc1cc(/C=C/C(=O)O)ccc1O | 106% | –
CN(C)CCc1c[nH]c2ccc(C[C@H]3COC(=O)N3)cc12 [Zolmitriptan] | 111 ± 6% | –

Structure (SMILES) | HMGB1-induced TNF-alpha production (compound concentration: 3 uM) | HMGB1-induced TNF-alpha production [1]
CN(C)CCc1c[nH]c2ccc(C[C@H]3COC(=O)N3)cc12 | 87.3% | –
CN(C)CCC=C1c2ccccc2C=Cc2ccccc21 [Cyclobenzaprine hydrochloride] | 64.8 ± 14% | –
CN(C)CCC=C1c2ccccc2C=Cc2ccccc21 | 87.3% | –
O=c1[nH]c(=O)n([C@H]2C[C@H](O)[C@@H](CO)O2)cc1F [Floxuridine] | 98.5 ± 1.1% | –
O=c1[nH]c(=O)n([C@H]2C[C@H](O)[C@@H](CO)O2)cc1F | 103 ± 5% | –
CNNCc1ccc(C(=O)NC(C)C)cc1 | 101% | –
CNNCc1ccc(C(=O)NC(C)C)cc1 [Procarbazine] | 92.2% | –
CNNCc1ccc(C(=O)NC(C)C)cc1 [Procarbazine hydrochloride] | 125% | –
Nc1ccc(C(=O)Oc2ccccc2)c(O)c1 | 84% | –
COc1cc(C)c(/C=C/C(C)=C/C=C/C(C)=C/C(=O)O)c(C)c1C [Acitretin] | 89.4% | –
CC(C)OC(=O)CCC/C=C\C[C@@H]1[C@@H](CC[C@@H](O)CCc2ccccc2)[C@H](O)C[C@@H]1O [Latanoprost] | 103% | –
CC(C)OC(=O)CCC/C=C\C[C@@H]1[C@@H](CC[C@@H](O)CCc2ccccc2)[C@H](O)C[C@@H]1O | 88.9% | –
O=C(O)c1cc(O)c2c(c1)[C@H]([C@H]1c3cc(C(=O)O)cc(O)c3C(=O)c3c(O[C@@H]4O[C@H](CO)[C@@H](O)[C@H](O)[C@H]4O)cccc31)c1cccc(O[C@@H]3O[C@H](CO)[C@@H](O)[C@H](O)[C@H]3O)c1C2=O | 73.4% | –
CC(=O)Oc1cc(C(C)C)c(OCCN(C)C)cc1C [Moxisylyte hydrochloride] | 103% | –
CC(=O)Oc1cc(C(C)C)c(OCCN(C)C)cc1C | 80.4% | –
CC(=O)Oc1cc(C(C)C)c(OCCN(C)C)cc1C [Moxisylyte hydrochoride] | 59.9% | –
CC(c1cc2ccccc2s1)N(O)C(N)=O (stereo not drawn) | 96.1 ± 22% | –
CC(c1cc2ccccc2s1)N(O)C(N)=O (stereo not drawn) [Zileuton] | 101 ± 12% | –
C[C@@H]1C(=O)O[C@H]2C[C@@]34[C@H]5C[C@@H](C(C)(C)C)[C@]36[C@@H](OC(=O)[C@@H]6O)O[C@@]4(C(=O)O5)[C@]21O [Ginkgolide A] | 108% | 76.3%
CC1=C(/C=C/C(C)=C/C=C/C(C)=C/C(=O)Nc2ccc(O)cc2)C(C)(C)CCC1 [Fenretinide] | 90.2% | –
CC1=C(/C=C/C(C)=C/C=C/C(C)=C/C(=O)Nc2ccc(O)cc2)C(C)(C)CCC1 [Retinoic acid p-hydroxyanilide] | 103% | –

Single records, as listed above. Values in the order: HMGB1-induced TNF-alpha production (compound concentration: 3 uM) | HMGB1-induced TNF-alpha production [1]
CNNCc1ccc(C(=O)NC(C)C)cc1 [Procarbazine] reads 92.2% | –
CN(C)CCc1c[nH]c2ccc(C[C@H]3COC(=O)N3)cc12 reads 87.3% | –
CN(C)CCC=C1c2ccccc2C=Cc2ccccc21 reads 87.3% | –
COc1cc(C)c(/C=C/C(C)=C/C=C/C(C)=C/C(=O)O)c(C)c1C [Acitretin] reads 89.4% | –

Remaining list, next part:

Structure (SMILES) | HMGB1-induced TNF-alpha production (compound concentration: 3 uM) | HMGB1-induced TNF-alpha production [1]
CC1=C(/C=C/C(C)=C/C=C/C(C)=C/C(=O)Nc2ccc(O)cc2)C(C)(C)CCC1 | 81.8% | –
CCC(=O)O[C@H]1[C@H](O[C@@H]2[C@@H](C)[C@H](O[C@H]3C[C@@](C)(OC)[C@@H](O)[C@H](C)O3)[C@@H](C)C(=O)O[C@H](CC)[C@@](C)(O)[C@H](O)[C@@H](C)C(=O)[C@H](C)C[C@@]2(C)O)O[C@H](C)C[C@@H]1N(C)C | 97.5% | –
Nc1ncnc2c1ncn2[C@@H]1O[C@H](COP(=O)(O)O)[C@@H](O)[C@H]1O | 88.7% | –
C#C[C@]1(O)CC[C@H]2[C@@H]3[C@H](C)CC4=C(CCC(=O)C4)[C@H]3CC[C@@]21C | 96.2% | –
C#C[C@]1(O)CC[C@H]2[C@@H]3[C@H](C)CC4=C(CCC(=O)C4)[C@H]3CC[C@@]21C [Tibolone] | 74.1 ± 14% | –
Cn1cc(C(=O)OCC2CCN(CCNS(C)(=O)=O)CC2)c2ccccc21 | 83% | –
S=C=Nc1ccc(N=C=S)cc1 | 73.7% | –
O=c1cc(-c2ccccc2O)oc2cc(O)cc(O)c12 [5,7,2'-Trihydroxyflavone] | – | 59.2%
CCCCC(=O)O[C@]1(C(=O)CO)[C@@H](C)C[C@H]2[C@@H]3CCC4=CC(=O)C=C[C@]4(C)[C@@]3(F)[C@@H](O)C[C@@]21C | 43.7% | –
CNCC[C@H](Oc1ccc(C(F)(F)F)cc1)c1ccccc1 [S-(+)-Fluoxetine hydrochloride] | 87.2% | –
COc1cc(C(=O)N2CCOCC2)cc(OC)c1OC | 68.6% | –
CC(=O)OCC(=O)[C@@]1(O)CC[C@H]2[C@@H]3CCC4=CC(=O)CC[C@]4(C)[C@H]3C(=O)C[C@@]21C [cortisone 21-acetate] | – | 70.6%
CC(=O)OCC(=O)[C@@]1(O)CC[C@H]2[C@@H]3CCC4=CC(=O)CC[C@]4(C)[C@H]3C(=O)C[C@@]21C [Cortisone 21-acetate] | 78.1% | –
CC(=O)OCC(=O)[C@@]1(O)CC[C@H]2[C@@H]3CCC4=CC(=O)CC[C@]4(C)[C@H]3C(=O)C[C@@]21C | 71.4% | –
CC(=O)OCC(=O)[C@@]1(O)CC[C@H]2[C@@H]3CCC4=CC(=O)C=C[C@]4(C)[C@@]3(F)[C@@H](O)C[C@@]21C [Isoflupredone acetate] | 42.7% | –
O=C1c2ccccc2C(=O)c2c(NCCc3ccc(O)cc3)ccc(NCCc3ccc(O)cc3)c21 | 90% | –
O=C1c2c(O)cc(O)cc2OC(c2ccc(O)c(O)c2)C1O (stereo not drawn) | – | 69.3%
O=C1c2c(O)cc(O)cc2O[C@H](c2ccc(O)c(O)c2)[C@H]1O | 107% | –
O=C1c2c(O)cc(O)cc2O[C@H](c2ccc(O)c(O)c2)[C@H]1O (racemic) | 108% | –
